Test [1] concerns the target T1, dna2-D657A (nuclease-dead Dna2) (S. cerevisiae, UniProt P38859 1-1522, D657A).
T1 construct: Dna2, Saccharomyces cerevisiae, nuclease-dead version; Purified as the other Dna2 variants; FLAG tag used for quantum-dot labelling in DNA Curtains; also called dna2-D657A mutant; source: over-expressed in yeast, purified (Ni-NTA, anti-FLAG-M2 resin)
Briefly: native gel or EMSA; ternary complex of dna2-D657A variants (20 nM), Rfa1 truncations or mutants (20 nM) and 5 nM dT(20) ssDNA; 150 mM KCl, 30 °C, 4% native gel; both purified.

The chains behind the UniProt entries cited, without tags or fusion partners. Where a name states a change or a piece, a line headed by the entry shows the natural chain unless it says otherwise.
UniProt P26754: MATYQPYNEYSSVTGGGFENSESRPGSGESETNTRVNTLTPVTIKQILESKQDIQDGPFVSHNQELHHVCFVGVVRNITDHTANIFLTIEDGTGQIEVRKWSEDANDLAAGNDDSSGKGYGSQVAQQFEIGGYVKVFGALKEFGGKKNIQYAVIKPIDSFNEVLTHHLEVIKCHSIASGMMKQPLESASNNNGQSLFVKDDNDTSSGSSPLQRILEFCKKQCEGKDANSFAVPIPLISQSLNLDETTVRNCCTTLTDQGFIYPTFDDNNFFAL
UniProt P26755: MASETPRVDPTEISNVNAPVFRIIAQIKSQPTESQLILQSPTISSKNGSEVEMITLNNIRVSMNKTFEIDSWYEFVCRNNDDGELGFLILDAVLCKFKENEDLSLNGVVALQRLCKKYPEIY

Test [2] concerns the target RPA–∆N–GFP (yeast (S. cerevisiae)) (UniProt P22336+P26754+P26755). Nature of the test: single-molecule DNA Curtains (TIRF microscopy); quantum-dot (anti-FLAG) labelled Dna2 variants (2 nM) flowed over ssDNA with a free 5′-end coated with RPA–GFP or RPA–∆N–GFP; 0.1 nM free RPA–GFP in the buffer, 50 mM NaCl, 20 mM Tris-HCl pH 7.5, 2 mM MgCl2, 30 °C; both purified.
The target in test [3] is T2, dna2–∆501N–D657A (S. cerevisiae) (UniProt P38859).
T2 sequence: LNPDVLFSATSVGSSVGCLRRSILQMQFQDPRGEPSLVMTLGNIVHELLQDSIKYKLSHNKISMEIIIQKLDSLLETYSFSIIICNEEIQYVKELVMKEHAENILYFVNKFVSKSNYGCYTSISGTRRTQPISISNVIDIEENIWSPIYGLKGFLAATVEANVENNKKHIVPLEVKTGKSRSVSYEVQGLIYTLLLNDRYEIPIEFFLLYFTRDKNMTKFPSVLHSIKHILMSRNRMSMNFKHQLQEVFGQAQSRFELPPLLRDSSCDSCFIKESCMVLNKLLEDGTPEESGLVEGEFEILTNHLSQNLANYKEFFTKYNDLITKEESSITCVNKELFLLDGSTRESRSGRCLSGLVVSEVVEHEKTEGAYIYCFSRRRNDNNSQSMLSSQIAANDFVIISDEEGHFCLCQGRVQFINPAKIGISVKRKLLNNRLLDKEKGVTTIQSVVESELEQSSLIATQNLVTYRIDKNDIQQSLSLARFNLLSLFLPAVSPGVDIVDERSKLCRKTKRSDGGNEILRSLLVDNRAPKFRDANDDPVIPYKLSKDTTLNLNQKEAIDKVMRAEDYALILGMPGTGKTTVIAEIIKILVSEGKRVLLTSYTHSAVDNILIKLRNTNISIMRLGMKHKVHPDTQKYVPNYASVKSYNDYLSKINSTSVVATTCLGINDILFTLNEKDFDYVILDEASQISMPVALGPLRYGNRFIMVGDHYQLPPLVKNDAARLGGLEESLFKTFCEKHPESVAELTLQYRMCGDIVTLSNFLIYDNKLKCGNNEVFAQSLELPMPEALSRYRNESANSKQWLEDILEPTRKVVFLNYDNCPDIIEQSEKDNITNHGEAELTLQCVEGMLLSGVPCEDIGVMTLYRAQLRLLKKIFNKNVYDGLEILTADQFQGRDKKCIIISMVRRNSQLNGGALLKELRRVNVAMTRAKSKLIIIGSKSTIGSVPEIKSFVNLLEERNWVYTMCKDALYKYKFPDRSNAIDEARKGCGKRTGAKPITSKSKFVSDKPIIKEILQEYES
Briefly: native gel or EMSA; ternary complex of dna2-D657A variants (20 nM), Rfa1 truncations or mutants (20 nM) and 5 nM dT(20) ssDNA; 150 mM KCl, 30 °C, 4% native gel; both purified.

No constants are given. Whether binding was seen depends on the method and setting.

Regarding “Rfa1-N (amino acid 1–180) (from UniProt P22336 1-180) (domain or fragment)”, the binding entry in test [1] is on record as “no binding”.
Consider “Rfa1-N-DBD-A (amino acid 1-299) (from UniProt P22336 1-299) (domain or fragment)”, for which the binding result in test [1] was “no binding”.

B1: Dna2 (wild type, FLAG-His6-tagged) (enzyme, S. cerevisiae, UniProt P38859 1-1522, looked up)
chain: MPGTPQKNKRSASISVSPAKKTEEKEIIQNDSKAILSKQTKRKKKYAFAPINNLNGKNTKVSNASVLKSIAVSQVRNTSRTKDINKAVSKSVKQLPNSQVKPKREMSNLSRHHDFTQDEDGPMEEVIWKYSPLQRDMSDKTTSAAEYSDDYEDVQNPSSTPIVPNRLKTVLSFTNIQVPNADVNQLIQENGNEQVRPKPAEISTRESLRNIDDILDDIEGDLTIKPTITKFSDLPSSPIKAPNVEKKAEVNAEEVDKMDSTGDSNDGDDSLIDILTQKYVEKRKSESQITIQGNTNQKSGAQESCGKNDNTKSRGEIEDHENVDNQAKTGNAFYENEEDSNCQRIKKNEKIEYNSSDEFSDDSLIELLNETQTQVEPNTIEQDLDKVEKMVSDDLRIATDSTLSAYALRAKSGAPRDGVVRLVIVSLRSVELPKIGTQKILECIDGKGEQSSVVVRHPWVYLEFEVGDVIHIIEGKNIENKRLLSDDKNPKTQLANDNLLVLNPDVLFSATSVGSSVGCLRRSILQMQFQDPRGEPSLVMTLGNIVHELLQDSIKYKLSHNKISMEIIIQKLDSLLETYSFSIIICNEEIQYVKELVMKEHAENILYFVNKFVSKSNYGCYTSISGTRRTQPISISNVIDIEENIWSPIYGLKGFLDATVEANVENNKKHIVPLEVKTGKSRSVSYEVQGLIYTLLLNDRYEIPIEFFLLYFTRDKNMTKFPSVLHSIKHILMSRNRMSMNFKHQLQEVFGQAQSRFELPPLLRDSSCDSCFIKESCMVLNKLLEDGTPEESGLVEGEFEILTNHLSQNLANYKEFFTKYNDLITKEESSITCVNKELFLLDGSTRESRSGRCLSGLVVSEVVEHEKTEGAYIYCFSRRRNDNNSQSMLSSQIAANDFVIISDEEGHFCLCQGRVQFINPAKIGISVKRKLLNNRLLDKEKGVTTIQSVVESELEQSSLIATQNLVTYRIDKNDIQQSLSLARFNLLSLFLPAVSPGVDIVDERSKLCRKTKRSDGGNEILRSLLVDNRAPKFRDANDDPVIPYKLSKDTTLNLNQKEAIDKVMRAEDYALILGMPGTGKTTVIAEIIKILVSEGKRVLLTSYTHSAVDNILIKLRNTNISIMRLGMKHKVHPDTQKYVPNYASVKSYNDYLSKINSTSVVATTCLGINDILFTLNEKDFDYVILDEASQISMPVALGPLRYGNRFIMVGDHYQLPPLVKNDAARLGGLEESLFKTFCEKHPESVAELTLQYRMCGDIVTLSNFLIYDNKLKCGNNEVFAQSLELPMPEALSRYRNESANSKQWLEDILEPTRKVVFLNYDNCPDIIEQSEKDNITNHGEAELTLQCVEGMLLSGVPCEDIGVMTLYRAQLRLLKKIFNKNVYDGLEILTADQFQGRDKKCIIISMVRRNSQLNGGALLKELRRVNVAMTRAKSKLIIIGSKSTIGSVPEIKSFVNLLEERNWVYTMCKDALYKYKFPDRSNAIDEARKGCGKRTGAKPITSKSKFVSDKPIIKEILQEYES
notes: Dna2 nuclease-helicase, Saccharomyces cerevisiae, wild type; Wild-type protein; In DNA Curtains it was labelled with anti-FLAG quantum dots; in MST with the His-tag labelling kit RED-tris-NTA; also called wild-type Dna2; (His)6-tagged Dna2; source: over-expressed in yeast, purified (Ni-NTA, anti-FLAG-M2 resin)
B1: the binding entry in test [2] is “no binding (tested: 2 nM Dna2)”.

B2: Rfa1-N-DBD-A/B (Rfa1–NAB, amino acid 1–435) (domain or fragment, yeast (S. cerevisiae), UniProt P22336 1-435, looked up)
chain: MSSVQLSRGDFHSIFTNKQRYDNPTGGVYQVYNTRKSDGANSNRKNLIMISDGIYHMKALLRNQAASKFQSMELQRGDIIRVIIAEPAIVRERKKYVLLVDDFELVQSRADMVNQTSTFLDNYFSEHPNETLKDEDITDSGNVANQTNASNAGVPDMLHSNSNLNANERKFANENPNSQKTRPIFAIEQLSPYQNVWTIKARVSYKGEIKTWHNQRGDGKLFNVNFLDTSGEIRATAFNDFATKFNEILQEGKVYYVSKAKLQPAKPQFTNLTHPYELNLDRDTVIEECFDESNVPKTHFNFIKLDAIQNQEVNSNVDVLGIIQTINPHFELTSRAGKKFDRRDITIVDDSGFSISVGLWNQQALDFNLPEGSVAAIKGVRVTDFGGKSLSMGFSSTLIPNPEIPEAYALKGWYDSKGRNANFITLKQEPGMGGQ
notes: Rfa1 of yeast RPA, residues 1-435 (N, DBD-A and DBD-B domains); The 6xHis tag can optionally be removed by TEV protease; also called NAB polypeptide; pHis–Rfa1 1–435; source: E. coli BL21 codon plus, purified (Ni-NTA, Superdex 200)
As for B2, in test [3], the binding entry is recorded as “no binding”.

The values above are taken from PMC8766458, “Deciphering the mechanism of processive ssDNA digestion by the Dna2-RPA ensemble” (Nature Communications, 2022).
